PubChem BioAssay AID686938 – Drosophila RNAi Screening Center, 2013
Assay: 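Fly genes required for calcium entry once internal stores are emptied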 (primary screen). Cell system: Drosophila S2R+ cells. Reagent: long dsRNA against Drosophila genes, about 0.25 µg dsRNA per well, roughly 10,000 cells. Duration: 5 days of knock-down before the calcium assay. Treatment: thapsigargin (SERCA pump blocker) to empty calcium stores; entry signal taken 4 min after adding it. Detection: 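Duplicate raw fluo-4 intensities per well from a plate reader, at rest and four minutes after thapsigargin emptied calcium stores; entry-to-rest ratio filled for only some wells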. Reading the numbers: calcium entry signal: higher = stronger calcium signal after store depletion; entry to resting ratio: higher = more calcium entry relative to resting level; resting calcium signal: higher = higher resting calcium signal. Call rule: 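Called when the plate z-score of the entry-to-rest ratio, mean of duplicates, falls below −3; wells with low overall dye signal (Fmax z below −2) or more than five off-targets excluded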. Meaning of the calls: active = strongly reduced calcium entry; inactive = no strong reduction.
The screen tested about 23,000 reagents; below is an unselected part of those that have a named target and a result. Over the whole deposit, 75 (0.33%) are marked active. 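Raw plate signals without normalisation; calls rest on plate z-scores that were not deposited; ratio present for only 364 wells.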 A plus sign joins genes that one reagent is predicted to hit. Not given: the dose of the treatment.

The first 4 records, to show the layout:
| target | DRSC id | calcium entry signal, replicate 1 (fluorescence units) | calcium entry signal, replicate 2 (fluorescence units) | entry to resting ratio | resting calcium signal, replicate 1 (fluorescence units) | resting calcium signal, replicate 2 (fluorescence units) | outcome |
| --- | --- | --- | --- | --- | --- | --- | --- |
| CCT7 | DRSC16410 | 3.58e7 | 2.22e7 | – | 1.95e7 | 1.29e7 | inactive |
| CG13995 | DRSC00907 | 2.97e7 | 4.64e7 | – | 1.55e7 | 2.26e7 | inactive |
| CG13995 | DRSC02327 | 4.05e7 | 3.63e7 | – | 1.98e7 | 1.87e7 | inactive |
| CG13995 | DRSC22767 | 4.26e7 | 3.56e7 | – | 2.05e7 | 1.63e7 | inactive |

The list itself, from the first entry:
| target | DRSC id | calcium entry signal, replicate 1 (fluorescence units) | calcium entry signal, replicate 2 (fluorescence units) | entry to resting ratio | resting calcium signal, replicate 1 (fluorescence units) | resting calcium signal, replicate 2 (fluorescence units) | outcome |
| --- | --- | --- | --- | --- | --- | --- | --- |
| CCT7 | DRSC16410 | 3.58e7 | 2.22e7 | – | 1.95e7 | 1.29e7 | inactive |
| CG13995 | DRSC00907 | 2.97e7 | 4.64e7 | – | 1.55e7 | 2.26e7 | inactive |
| CG13995 | DRSC02327 | 4.05e7 | 3.63e7 | – | 1.98e7 | 1.87e7 | inactive |
| CG13995 | DRSC22767 | 4.26e7 | 3.56e7 | – | 2.05e7 | 1.63e7 | inactive |
| CG8861 | DRSC12731 | 3.07e7 | 4.85e7 | – | 1.48e7 | 2.23e7 | inactive |
| CG8861 | DRSC16449 | 2.14e7 | 2.04e7 | – | 1.14e7 | 1.19e7 | inactive |
| CG8072 | DRSC10960 | 3.57e7 | 3.77e7 | – | 1.85e7 | 1.65e7 | inactive |
| kek2 | DRSC03552 | 3.96e7 | 4.61e7 | – | 1.83e7 | 1.91e7 | inactive |
| yin | DRSC18854 | 3.74e7 | 4.46e7 | – | 1.70e7 | 2.07e7 | inactive |
| yin | DRSC21889 | 3.22e7 | 5.23e7 | – | 1.52e7 | 2.15e7 | inactive |
| Mcm10 | DRSC03162 | 3.02e7 | – | – | 1.34e7 | – | inactive |
| Ugt37C1 | DRSC07416 | 3.54e7 | 3.48e7 | – | 1.44e7 | 1.64e7 | inactive |
| Nep5 | DRSC16004 | 3.09e7 | 3.55e7 | – | 1.37e7 | 1.66e7 | inactive |
| dec | DRSC18759 | 3.39e7 | 3.35e7 | – | 1.66e7 | 1.60e7 | inactive |
| dec | DRSC21477 | 2.99e7 | 2.74e7 | – | 1.57e7 | 1.35e7 | inactive |
| rtp | DRSC12132 | 2.36e7 | 3.09e7 | – | 9.71e6 | 1.37e7 | inactive |
| P5cr-2 | DRSC15889 | 4.03e7 | 4.65e7 | – | 1.90e7 | 6.89e7 | inactive |
| Ir68b | DRSC10251 | 3.05e7 | 4.34e7 | – | 1.68e7 | 2.00e7 | inactive |
| CG8312 | DRSC16406 | 3.42e7 | 3.79e7 | – | 1.55e7 | 1.69e7 | inactive |
| psq | DRSC07668 | 3.52e7 | 3.91e7 | – | 2.06e7 | 2.04e7 | inactive |
| psq | DRSC23094 | 4.42e7 | 4.45e7 | – | 2.15e7 | 1.95e7 | inactive |
| CG14669 | DRSC12065 | 2.78e7 | 4.13e7 | – | 1.45e7 | 2.00e7 | inactive |
| CG14669 | DRSC12067 | 2.77e7 | 3.40e7 | – | 1.35e7 | 1.60e7 | inactive |
| CG14669 | DRSC12068 | 2.69e7 | 3.09e7 | – | 1.28e7 | 1.36e7 | inactive |
| CG14669 | DRSC12255 | 4.60e7 | 3.48e7 | – | 2.27e7 | 1.74e7 | inactive |
| Cp7Fc | DRSC18035 | 2.87e7 | 4.05e7 | – | 1.50e7 | 1.94e7 | inactive |
| CG31272 | DRSC16058 | 3.52e7 | 3.81e7 | – | 1.79e7 | 2.04e7 | inactive |
| CG30271 | DRSC04170 | 3.60e7 | 4.87e7 | – | 1.88e7 | 2.24e7 | inactive |
| CG5160 | DRSC02821 | 3.88e7 | 4.15e7 | – | 2.01e7 | 1.87e7 | inactive |
| Slip1 | DRSC17146 | 4.98e7 | 4.51e7 | – | 2.25e7 | 2.10e7 | inactive |
| CG31775 + CG42586 | DRSC22289 | 3.06e7 | 3.54e7 | – | 1.49e7 | 1.80e7 | inactive |
| CG31775 + CG42586 | DRSC23266 | 7.55e7 | 2.24e7 | – | 3.20e7 | 1.03e7 | inactive |
| Or13a | DRSC20265 | 4.56e7 | 2.82e7 | – | 2.31e7 | 1.35e7 | inactive |
| CG1092 | DRSC12151 | 4.37e7 | 4.42e7 | – | 1.91e7 | 3.17e7 | inactive |
| CG30039 | DRSC21794 | 4.00e7 | 3.54e7 | – | 2.15e7 | 1.71e7 | inactive |
| CG10962 | DRSC18421 | 3.26e7 | 3.32e7 | – | 1.58e7 | 1.52e7 | inactive |
| Tsen34 | DRSC22932 | 2.45e7 | 2.83e7 | – | 1.31e7 | 1.26e7 | inactive |
| drd | DRSC19343 | 4.34e7 | 2.28e7 | – | 2.09e7 | 1.17e7 | inactive |
| drd | DRSC21466 | 2.37e7 | 3.04e7 | – | 1.25e7 | 1.30e7 | inactive |
| l(2)05287 | DRSC02151 | 1.94e7 | – | – | 1.13e7 | – | inactive |
| l(2)05287 | DRSC02152 | 2.28e7 | 2.31e7 | – | 1.35e7 | 1.47e7 | inactive |
| Cals | DRSC17196 | 3.91e7 | 4.27e7 | – | 1.79e7 | 1.94e7 | inactive |
| Cals | DRSC21661 | 3.66e7 | 4.31e7 | – | 2.16e7 | 1.99e7 | inactive |
| CG14739 | DRSC14959 | 2.26e7 | 2.24e7 | – | 1.22e7 | 1.25e7 | inactive |
| asRNA:CR43469 + Balat | DRSC06852 | 3.91e7 | 4.83e7 | – | 1.72e7 | 2.06e7 | inactive |
| CG10209 | DRSC05980 | 4.56e7 | 4.76e7 | – | 1.94e7 | 2.15e7 | inactive |
| CG18404 | DRSC15323 | 2.63e7 | 4.16e7 | – | 1.49e7 | 1.93e7 | inactive |
| CG42326 | DRSC06483 | 3.85e7 | 4.28e7 | – | 1.85e7 | 1.85e7 | inactive |
| CG42326 | DRSC06484 | 4.11e7 | 3.77e7 | – | 1.86e7 | 1.67e7 | inactive |
| Mvb12 | DRSC20027 | 3.33e7 | 3.21e7 | – | 1.94e7 | 1.56e7 | inactive |
| Muc14A | DRSC23264 | 2.94e7 | 3.01e7 | – | 1.40e7 | 1.27e7 | inactive |
| Odc1 | DRSC07482 | 3.52e7 | 3.06e7 | – | 1.54e7 | 1.54e7 | inactive |
| CG15530 | DRSC15067 | 2.49e7 | 3.14e7 | – | 1.36e7 | 1.43e7 | inactive |
| CG13117 | DRSC02215 | 4.34e7 | 5.25e7 | – | 2.11e7 | 2.22e7 | inactive |
| wds | DRSC18852 | 2.34e7 | 3.17e7 | 1.8 | 1.34e7 | 1.62e7 | inactive |
| CG4998 | DRSC10466 | 4.10e7 | 5.66e7 | – | 2.02e7 | 2.55e7 | inactive |
| CG4998 | DRSC22911 | 4.09e7 | 4.10e7 | – | 2.32e7 | 1.95e7 | inactive |
| ps | DRSC15149 | 2.47e7 | 2.34e7 | – | 1.38e7 | 1.29e7 | inactive |
| ps | DRSC15151 | 2.60e7 | 2.71e7 | – | 1.36e7 | 1.47e7 | inactive |
| ps | DRSC15152 | 2.50e7 | 2.27e7 | – | 1.54e7 | 1.31e7 | inactive |
| ps | DRSC16388 | 2.83e7 | 2.11e7 | – | 1.82e7 | 1.22e7 | inactive |
| ps | DRSC22989 | 4.70e7 | 3.58e7 | – | 2.55e7 | 1.68e7 | inactive |
